Measured values reported in PMC10719344.
Results are given in words; binding and its absence hold for the method and conditions named. Binding seen in cells or lysates may run through a third protein. A result given as binding can be weak or reduced; the word gives no strength.

The chains behind the UniProt entries cited, without tags or fusion partners. Where a name states a change or a piece, a line headed by the entry shows the natural chain unless it says otherwise.
UniProt P78504: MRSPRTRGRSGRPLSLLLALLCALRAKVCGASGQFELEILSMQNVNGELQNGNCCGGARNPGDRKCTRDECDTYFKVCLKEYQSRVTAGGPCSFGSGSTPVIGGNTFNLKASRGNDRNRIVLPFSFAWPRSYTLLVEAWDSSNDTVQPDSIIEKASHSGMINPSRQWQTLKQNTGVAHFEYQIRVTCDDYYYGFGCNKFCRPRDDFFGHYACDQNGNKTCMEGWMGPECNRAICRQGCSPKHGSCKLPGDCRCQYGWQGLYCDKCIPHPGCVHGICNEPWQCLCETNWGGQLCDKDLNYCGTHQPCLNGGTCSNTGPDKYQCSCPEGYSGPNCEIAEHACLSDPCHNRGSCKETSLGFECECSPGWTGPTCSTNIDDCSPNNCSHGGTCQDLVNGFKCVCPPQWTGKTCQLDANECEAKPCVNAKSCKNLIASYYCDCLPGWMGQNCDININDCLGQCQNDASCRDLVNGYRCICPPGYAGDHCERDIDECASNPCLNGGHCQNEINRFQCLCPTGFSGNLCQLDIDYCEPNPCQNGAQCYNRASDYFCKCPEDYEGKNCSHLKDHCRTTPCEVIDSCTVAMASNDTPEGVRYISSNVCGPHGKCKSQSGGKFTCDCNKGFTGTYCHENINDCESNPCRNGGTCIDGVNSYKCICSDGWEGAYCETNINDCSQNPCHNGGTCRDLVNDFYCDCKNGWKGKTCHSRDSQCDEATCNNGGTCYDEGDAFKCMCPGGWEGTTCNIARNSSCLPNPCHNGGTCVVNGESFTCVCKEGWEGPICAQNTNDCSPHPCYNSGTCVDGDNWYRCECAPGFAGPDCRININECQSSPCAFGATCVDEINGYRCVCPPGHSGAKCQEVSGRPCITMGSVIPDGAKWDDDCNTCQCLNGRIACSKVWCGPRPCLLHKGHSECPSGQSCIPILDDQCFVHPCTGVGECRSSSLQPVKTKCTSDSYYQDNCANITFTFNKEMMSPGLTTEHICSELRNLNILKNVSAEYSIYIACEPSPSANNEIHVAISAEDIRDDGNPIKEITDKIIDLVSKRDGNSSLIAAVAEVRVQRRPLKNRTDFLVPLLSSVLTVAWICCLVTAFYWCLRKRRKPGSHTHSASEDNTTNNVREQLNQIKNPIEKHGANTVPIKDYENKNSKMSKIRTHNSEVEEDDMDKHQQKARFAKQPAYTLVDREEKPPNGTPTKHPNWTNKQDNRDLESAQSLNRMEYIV
UniProt Q92841: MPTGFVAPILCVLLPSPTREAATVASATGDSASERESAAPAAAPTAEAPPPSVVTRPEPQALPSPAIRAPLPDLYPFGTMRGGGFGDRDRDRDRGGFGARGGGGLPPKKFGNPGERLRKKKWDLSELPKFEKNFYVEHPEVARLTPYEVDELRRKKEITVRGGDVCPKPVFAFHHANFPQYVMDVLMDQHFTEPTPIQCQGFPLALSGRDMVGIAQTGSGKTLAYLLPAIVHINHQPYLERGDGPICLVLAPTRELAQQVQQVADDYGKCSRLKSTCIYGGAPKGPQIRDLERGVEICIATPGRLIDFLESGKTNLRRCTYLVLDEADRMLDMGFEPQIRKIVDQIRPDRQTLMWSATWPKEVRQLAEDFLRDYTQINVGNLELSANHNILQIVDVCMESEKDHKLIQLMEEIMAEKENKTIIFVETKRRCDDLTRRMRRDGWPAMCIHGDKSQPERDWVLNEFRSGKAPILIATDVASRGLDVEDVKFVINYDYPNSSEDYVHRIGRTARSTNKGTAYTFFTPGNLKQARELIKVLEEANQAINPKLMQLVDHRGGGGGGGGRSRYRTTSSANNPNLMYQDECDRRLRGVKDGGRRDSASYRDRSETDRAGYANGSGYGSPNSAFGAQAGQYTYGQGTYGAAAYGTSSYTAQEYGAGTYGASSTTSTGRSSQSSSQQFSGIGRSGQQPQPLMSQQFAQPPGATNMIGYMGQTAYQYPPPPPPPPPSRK
UniProt P84022: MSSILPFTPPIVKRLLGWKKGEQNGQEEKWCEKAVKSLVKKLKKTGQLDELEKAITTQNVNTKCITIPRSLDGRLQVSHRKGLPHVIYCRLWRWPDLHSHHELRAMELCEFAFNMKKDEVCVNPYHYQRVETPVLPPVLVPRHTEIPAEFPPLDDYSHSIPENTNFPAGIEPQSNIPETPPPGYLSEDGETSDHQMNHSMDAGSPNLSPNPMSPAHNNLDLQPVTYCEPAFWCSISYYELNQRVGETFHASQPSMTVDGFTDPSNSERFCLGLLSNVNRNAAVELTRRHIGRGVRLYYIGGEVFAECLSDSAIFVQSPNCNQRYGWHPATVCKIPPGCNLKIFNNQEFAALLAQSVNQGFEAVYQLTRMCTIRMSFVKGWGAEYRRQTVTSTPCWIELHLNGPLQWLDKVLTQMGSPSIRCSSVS

Assays:
[1] = target: HA-tagged Jagged1 (JAG1) intracellular domain (human) (UniProt P78504); test: co-IP; IP with anti-HA antibody and Protein A/G agarose from lysates (Pierce IP lysis buffer with protease and phosphatase inhibitors) of stable HA-JICD1-overexpressing A172 and U87MG cells; IgG isotype control; blots for DDX17, SMAD3, pSMAD3 (Ser 213), pSMAD3 (Ser 423/425)
HA-DDX17 = HA-DDX17 (UniProt Q92841); test: co-IP; IP with anti-HA antibody (HA-DDX17) from lysates of HEK293T cells co-transfected with HA-DDX17 and FLAG-SMAD3 or FLAG-SMAD3 mutants; 5 uM MG-132 for 12 h before harvest; with or without SB431542; blot with anti-FLAG

binding [1] | binding (HA-DDX17) | Substance
binds |  | DEAD-box helicase 17 (DDX17), endogenous (from UniProt Q92841 1-729)
 | binds | FLAG-SMAD3 with C-tail mutations (SMAD3-CM) (from UniProt P84022)
